Measurements reported in PubChem BioAssay AID1259254 (NCATS, 2017)
Purpose: 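Gene knock-downs that lead to re-replication, shown by excess G2 DNA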 (primary screen). Cell system: human HCT116 colorectal cancer cells. Reagents: single siRNA against human genes. Duration: 3 days. Detection: 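Imaged Hoechst DNA stain sorts each cell into a cycle phase by DNA amount; per plate, G2 fraction set to 0% for non-targeting and 100% for GMNN siRNA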. Direction: G2 robust z-score and G2 cells, % of GMNN control: higher = more G2 cells, more excess DNA replication. Active means: 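An siRNA counts as active if its G2 robust z-score lies at least 5 MADs above the screen median; here such calls match roughly 38% of GMNN control or more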.
Shown is an unselected part of about 59,000 deposited reagents. About 1,550 of all reagents (2.6%) were called active. 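G2 share is only a proxy for re-replication; each gene was hit by three separate siRNAs, and active genes were retested.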 Entries without a mark were called inactive. Reagents against one gene are numbered here. Not all columns of the deposit are shown. Not stated in the record: the amount of reagent.

ANKFN1 (GeneID 162282) #1 scored G2 robust z-score -0.427; G2 cells, % of GMNN control -0.0386.
Knock-down of ANKFN1 (GeneID 162282) #2 came out at: G2 robust z-score -0.999; G2 cells, % of GMNN control -4.06.
With knock-down of ANKFN1 (GeneID 162282) #3 the results were G2 robust z-score 0.549; G2 cells, % of GMNN control 6.83.
Silencing of FAHD1 (GeneID 81889) #1 resulted in: G2 robust z-score 0.491; G2 cells, % of GMNN control 6.42.
For FAHD1 (GeneID 81889) #2, the values are G2 robust z-score 1.68; G2 cells, % of GMNN control 14.8.
Depletion of FAHD1 (GeneID 81889) #3 came out at: G2 robust z-score -0.287; G2 cells, % of GMNN control 0.945.
Silencing of ARL5A (GeneID 26225) #1 came out at: G2 robust z-score 1.52; G2 cells, % of GMNN control 13.7.
With knock-down of ARL5A (GeneID 26225) #2, the screen gave G2 robust z-score -0.357; G2 cells, % of GMNN control 0.453.
ARL5A (GeneID 26225) #3 gave G2 robust z-score 0.852; G2 cells, % of GMNN control 8.96.

Ordered by “G2 cells, % of GMNN control” (low to high): some entries from above.
ANKFN1 (GeneID 162282) #2 → G2 robust z-score = -0.999; G2 cells, % of GMNN control = -4.06
FAHD1 (GeneID 81889) #1 → G2 robust z-score = 0.491; G2 cells, % of GMNN control = 6.42
ANKFN1 (GeneID 162282) #3 → G2 robust z-score = 0.549; G2 cells, % of GMNN control = 6.83

Continued.
Silencing of RPL34 (GeneID 6164) #1 gave: G2 robust z-score 0.417; G2 cells, % of GMNN control 5.9.
After knock-down of RPL34 (GeneID 6164) #2, the record shows G2 robust z-score 0.619; G2 cells, % of GMNN control 7.32.
Depletion of RPL34 (GeneID 6164) #3 gave: G2 robust z-score 4.58; G2 cells, % of GMNN control 35.2.
ELL2 (GeneID 22936) #1 showed G2 robust z-score -0.711; G2 cells, % of GMNN control -2.04.
Depletion of ELL2 (GeneID 22936) #2 resulted in: G2 robust z-score 0.1; G2 cells, % of GMNN control 3.67.
For ELL2 (GeneID 22936) #3, the values are G2 robust z-score 0.498; G2 cells, % of GMNN control 6.47.
ZCCHC9 (GeneID 84240) #1 showed G2 robust z-score 1.28; G2 cells, % of GMNN control 12.
ZCCHC9 (GeneID 84240) #2 scored G2 robust z-score -0.316; G2 cells, % of GMNN control 0.746.
For ZCCHC9 (GeneID 84240) #3, the entry reads G2 robust z-score -0.871; G2 cells, % of GMNN control -3.16.
NME4 (GeneID 4833) #1 gave G2 robust z-score -0.585; G2 cells, % of GMNN control -1.15.
Silencing of NME4 (GeneID 4833) #2 gave: G2 robust z-score -0.406; G2 cells, % of GMNN control 0.114.
NME4 (GeneID 4833) #3 showed G2 robust z-score -0.772; G2 cells, % of GMNN control -2.46.
OCEL1 (GeneID 79629) #1 gave G2 robust z-score -0.759; G2 cells, % of GMNN control -2.37.
OCEL1 (GeneID 79629) #2 showed G2 robust z-score -1.34; G2 cells, % of GMNN control -6.49.
Silencing of OCEL1 (GeneID 79629) #3 gave: G2 robust z-score -0.461; G2 cells, % of GMNN control -0.275.
